Measured values taken from PMC10817852, “Vascular injury activates the ELK1/SND1/SRF pathway to promote vascular smooth muscle cell proliferative phenotype and neointimal hyperplasia”.
These are yes or no findings as the source states them, for the method shown. Binding seen in cells or lysates may run through a third protein. A result given as binding can be weak or reduced; the word gives no strength.

Molecular target: GST-fusion protein containing the SN domain of SND1 (GST-SN)
Experiment: pull-down; GST-fusion proteins of SND1 (full length, SN, TSN) with in vitro translated SRF; only the target purified

binding: binds
B1: In vitro translated SRF (protein, UniProt Q9JM73 1-504)
chain: MLPSQAGAAAALGRGSALGGNLNRTPTGRPGGGGGTRGANGGRVPGNGAGLGQSRLEREAAAAAAPTAGALYSGSEGDSESGEEEELGAERRGLKRSLSEMELGVVVGGPEAAAAAAGGYGPVSGAVSGAKPGKKTRGRVKIKMEFIDNKLRRYTTFSKRKTGIMKKAYELSTLTGTQVLLLVASETGHVYTFATRKLQPMITSETGKALIQTCLNSPDSPPRSDPTTDQRMSATGFEEPDLTYQVSESDSSGETKDTLKPAFTVTNLPGTTSTIQTAPSTSTTMQVSSGPSFPITNYLAPVSASVSPSAVSSANGTVLKSTGSGPVSSGGLMQLPTSFTLMPGGAVAQQVPVQAIHVHQAPQQASPSRDSSTDLTQTSSSGTVTLPATIMTSSVPTTVGGHMMYPSPHAVMYAPTSGLADGSLTVLNAFSQAPSTMQVSHSQVQEPGGVPQVFLTAPSGTVQIPVSAVQLHQMAVIGQQAGSSSNLTELQVVNLDATHSTKSE
